Source: PMC9079946

By UniProt entry, the sequences of proteins in these tests, tags left out. Residues count along the entry.
UniProt P02769, 25-607: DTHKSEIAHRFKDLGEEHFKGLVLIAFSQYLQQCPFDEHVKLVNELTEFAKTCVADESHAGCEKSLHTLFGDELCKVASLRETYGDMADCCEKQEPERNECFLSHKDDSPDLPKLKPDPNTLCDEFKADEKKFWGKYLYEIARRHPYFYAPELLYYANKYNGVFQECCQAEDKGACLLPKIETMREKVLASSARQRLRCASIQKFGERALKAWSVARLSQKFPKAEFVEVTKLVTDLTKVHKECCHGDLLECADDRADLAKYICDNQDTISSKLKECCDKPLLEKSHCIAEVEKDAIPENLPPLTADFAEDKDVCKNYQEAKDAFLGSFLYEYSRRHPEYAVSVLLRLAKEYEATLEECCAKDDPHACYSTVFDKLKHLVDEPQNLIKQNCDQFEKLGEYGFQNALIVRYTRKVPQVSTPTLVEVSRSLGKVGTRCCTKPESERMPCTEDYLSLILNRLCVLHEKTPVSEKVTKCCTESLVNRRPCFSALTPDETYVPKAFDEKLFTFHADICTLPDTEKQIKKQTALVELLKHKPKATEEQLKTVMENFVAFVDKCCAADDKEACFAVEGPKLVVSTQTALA

Experiments:
BSA = BSA (UniProt P02769); assay: strand a displacement with toehold-aided fluorescence amplification; details: 100 ng/mL BSA, slight fluorescence change only; 20 mM Tris-HCl, 100 mM NaCl, 10 mM KCl, 10 mM MgCl2, pH 7.5, 37 °C, 30 min; commercial protein
CD63 = assay: as above; details: 100 ng/mL CD63, slight fluorescence change only; 20 mM Tris-HCl, 100 mM NaCl, 10 mM KCl, 10 mM MgCl2, pH 7.5, 37 °C, 30 min; commercial protein

Sequence: CACTACAGAGGTTGCGTCTGTCCCACGTTGTCATGGGGGGTTGGCCTG / AGACGCAACCTCTGT [EpCAM aptamer / strand a duplex]
- binding result (BSA): no binding
- binding result (CD63): no binding

Negatives hold for the conditions tested. For some assays here: The exact form of at least one protein or probe is not confirmed.
